Structures were worked out from names or drawings and are uncertain.
Tests used:
[1] = system: IL-6 in A549 cells stimulated with IL-1β; assay: A549 Cell Assay to Measure Inflammation Markers (inhibition of IL-1β-induced IL-6); conditions: intrinsic activity, Emax class ranges
[2] = target: Glucocorticoid Receptor (GR) (Homo sapiens, UniProt P04150); assay: GR Fluorescence Polarization Assay (PolarScreen Glucocorticoid Receptor Competitor Assay, Red); conditions: read-out: GR binding, IC50 class ranges

Sequences of proteins named here, by UniProt entry; tags and fusion partners are left off.
UniProt P04150, whole entry: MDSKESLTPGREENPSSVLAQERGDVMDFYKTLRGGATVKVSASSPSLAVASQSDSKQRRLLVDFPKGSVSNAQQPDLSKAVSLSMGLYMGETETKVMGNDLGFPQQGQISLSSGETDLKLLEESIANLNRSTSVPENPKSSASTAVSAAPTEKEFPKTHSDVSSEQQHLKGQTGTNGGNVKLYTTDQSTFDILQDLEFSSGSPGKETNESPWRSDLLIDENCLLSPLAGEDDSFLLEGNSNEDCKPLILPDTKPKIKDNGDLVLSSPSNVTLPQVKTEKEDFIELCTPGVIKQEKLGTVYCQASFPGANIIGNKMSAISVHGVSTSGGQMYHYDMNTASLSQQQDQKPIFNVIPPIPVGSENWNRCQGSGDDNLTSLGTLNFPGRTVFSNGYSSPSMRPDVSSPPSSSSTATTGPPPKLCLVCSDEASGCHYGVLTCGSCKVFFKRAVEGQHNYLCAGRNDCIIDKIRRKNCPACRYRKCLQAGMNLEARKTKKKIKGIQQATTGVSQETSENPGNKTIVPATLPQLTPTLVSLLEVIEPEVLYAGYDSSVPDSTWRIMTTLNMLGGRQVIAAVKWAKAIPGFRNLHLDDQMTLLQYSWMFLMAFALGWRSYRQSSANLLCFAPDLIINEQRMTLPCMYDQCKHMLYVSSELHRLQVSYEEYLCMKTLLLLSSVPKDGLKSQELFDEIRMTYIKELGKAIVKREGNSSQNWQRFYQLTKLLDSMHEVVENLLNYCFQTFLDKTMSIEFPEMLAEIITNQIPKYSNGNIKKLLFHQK

SMILES: Cc1cc(Cl)ccc1[C@@H]1SC[C@@H](C)Nc2c1c(C)nn2C (relative stereo)
- A549 Emax [1]: D (a compound with Emax<50%)
- IC50 [2]: < 100 nM

From patent US9150592B2, “Heterocyclic nuclear hormone receptor modulators” (AbbVie Inc., priority 2012, dated 2015)
